Article PMC11982375
Read-outs that look alike come from different tables or passages of the source. These are yes or no findings as the source states them, for the method shown. For some of these results: Binding seen in cells or lysates may run through a third protein. Some binding calls cover weakened binding; strength is not graded here. For some of these results: Tags and fused reporters may be left off the sequences shown. Values belong to the molecule of their own block, whether it stands above or below them.

Amino acid sequences for entries named in this document (tags omitted). A change or cut given only in a name is not applied to a line headed by its entry.
UniProt Q13283: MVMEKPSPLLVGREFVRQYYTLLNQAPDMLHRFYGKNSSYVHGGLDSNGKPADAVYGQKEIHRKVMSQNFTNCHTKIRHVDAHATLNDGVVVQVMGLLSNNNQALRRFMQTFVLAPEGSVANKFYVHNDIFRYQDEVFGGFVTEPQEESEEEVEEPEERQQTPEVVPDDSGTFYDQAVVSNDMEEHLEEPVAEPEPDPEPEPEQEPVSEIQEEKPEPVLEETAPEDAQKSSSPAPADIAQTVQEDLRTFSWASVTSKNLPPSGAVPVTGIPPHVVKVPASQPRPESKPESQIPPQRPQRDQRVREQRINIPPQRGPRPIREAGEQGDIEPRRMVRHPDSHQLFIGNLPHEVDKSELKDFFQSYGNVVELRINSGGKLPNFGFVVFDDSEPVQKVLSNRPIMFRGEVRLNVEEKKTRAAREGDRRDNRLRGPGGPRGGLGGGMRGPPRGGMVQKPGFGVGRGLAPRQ
UniProt Q86Y07: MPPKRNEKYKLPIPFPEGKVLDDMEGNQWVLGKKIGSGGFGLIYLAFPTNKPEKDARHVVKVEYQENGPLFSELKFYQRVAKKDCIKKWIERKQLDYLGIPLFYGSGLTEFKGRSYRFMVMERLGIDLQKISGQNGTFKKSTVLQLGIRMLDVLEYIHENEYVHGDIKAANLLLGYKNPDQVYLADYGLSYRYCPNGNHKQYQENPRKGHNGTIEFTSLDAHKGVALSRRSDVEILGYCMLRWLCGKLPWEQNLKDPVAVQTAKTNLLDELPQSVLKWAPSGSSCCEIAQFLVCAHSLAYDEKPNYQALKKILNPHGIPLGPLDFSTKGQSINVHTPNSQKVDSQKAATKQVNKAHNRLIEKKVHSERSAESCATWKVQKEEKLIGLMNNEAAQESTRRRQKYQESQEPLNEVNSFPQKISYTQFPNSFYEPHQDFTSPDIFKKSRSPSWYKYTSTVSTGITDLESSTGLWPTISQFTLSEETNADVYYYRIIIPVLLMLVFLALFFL

How the values were obtained:
GST-G3BP1 (human) = GST-G3BP1 (human) (UniProt Q13283); experiment: pull-down; GST pull down: GST-tagged recombinant protein mixed with His- or Intein-tagged recombinant protein in 20 mM Tris, 150 mM NaCl, 1 mM EDTA, 0.5% Triton-X; Glutathione Sepharose 4B overnight at 4 °C; immunoblot; both purified
pNTAP-VRK2 (human) [1] = target: pNTAP-VRK2 (human) (UniProt Q86Y07); experiment: pull-down; pNTAP-streptavidin pull down: U2OS cells transfected with pNTAP-Mock or pNTAP-VRK2, lysed in RIPA buffer; 1 mg lysate with streptavidin agarose resin 12 h at 4 °C; immunoblot
pNTAP-VRK2 (human) [2] = target: pNTAP-VRK2 (human) (UniProt Q86Y07); experiment: as above; remark: listed apart in the source
Flag-VRK2 (human) = Flag-VRK2 (human) (UniProt Q86Y07); experiment: co-IP; HEK293A cells transfected with FLAG-VRK2 and GFP-RNF144A (or Mock); 1 mg lysate with Anti-Flag antibody and protein A-agarose overnight at 4 °C; 50 mM Tris pH 7.5, 30 mM NaCl, 2 mM EDTA, 1% Triton X-100; immunoblot

binding (GST-G3BP1 (human)): binds
Molecule: His-VRK2 (from UniProt Q86Y07-1 1-508) (enzyme)

binding (pNTAP-VRK2 (human) [2]): binds
B1: RNF144A (in U2OS cells) (enzyme, UniProt P50876 1-292)
chain: MTTTRYRPTWDLALDPLVSCKLCLGEYPVEQMTTIAQCQCIFCTLCLKQYVELLIKEGLETAISCPDAACPKQGHLQENEIECMVAAEIMQRYKKLQFEREVLFDPCRTWCPASTCQAVCQLQDVGLQTPQPVQCKACRMEFCSTCKASWHPGQGCPETMPITFLPGETSAAFKMEEDDAPIKRCPKCKVYIERDEGCAQMMCKNCKHAFCWYCLESLDDDFLLIHYDKGPCRNKLGHSRASVIWHRTQVVGIFAGFGLLLLVASPFLLLATPFVLCCKCKCSKGDDDPLPT

The next lines start with the molecule.

Molecule: G3BP1 (in U2OS cells) (from UniProt Q13283 1-466)
binding (pNTAP-VRK2 (human) [1]): binds

B2: GFP-RNF144A (enzyme, UniProt P50876 1-292)
chain: B1 chain
binding (Flag-VRK2 (human)): binds
